The whole screen tested about 200,000 compounds, of which about 25 (0.01%) were called active. These results got no clear call from the source, so the numbers are uncertain. Calls come from the whole dose curve; as a rule, active = well fitted inhibition curve with a large enough effect in the signal ratio, with a control signal flat (not every such curve was filed as active); inconclusive = small, poorly fitted or top-dose-only effect, or effect the other way, or a change in a side signal; inactive = flat fitted curve, though single readings scatter; the % refers to the signal ratio.
Test: qHTS Assay for Modulators of Lamin A Splicing
Settings: HeLa LMNA splicing GFP/RFP minigene ratio, 48 h
Potency is the fitted concentration of half-maximal effect.

Row | Structure (SMILES) | Potency
1 | O=[N+]([O-])c1cc([N+](=O)[O-])c(NCC2CCS(=O)(=O)C2)c([N+](=O)[O-])c1 (configuration not stated) | inconclusive: 562 nM
2 | O=C(NCC1(N2CCOCC2)CCCCC1)c1ccc(Cl)cc1 | inconclusive: 10 nM

Reference: PubChem BioAssay AID1487 (National Center for Advancing Translational Sciences (NCATS), 2009)
